For one compound, IC50 results are on record in patent publication US8933103B2, “Pyridone derivatives” (Daiichi Sankyo Company, Limited, priority 2012, dated 2015).

The target of assay [1] is T1, phosphorylated Axl (pAxl Y702) in NCI-H1299 cells (Homo sapiens, UniProt P30530).
T1 construct: endogenous in cells; host or cells: NCI-H1299
T1 sequence (P30530 26-894): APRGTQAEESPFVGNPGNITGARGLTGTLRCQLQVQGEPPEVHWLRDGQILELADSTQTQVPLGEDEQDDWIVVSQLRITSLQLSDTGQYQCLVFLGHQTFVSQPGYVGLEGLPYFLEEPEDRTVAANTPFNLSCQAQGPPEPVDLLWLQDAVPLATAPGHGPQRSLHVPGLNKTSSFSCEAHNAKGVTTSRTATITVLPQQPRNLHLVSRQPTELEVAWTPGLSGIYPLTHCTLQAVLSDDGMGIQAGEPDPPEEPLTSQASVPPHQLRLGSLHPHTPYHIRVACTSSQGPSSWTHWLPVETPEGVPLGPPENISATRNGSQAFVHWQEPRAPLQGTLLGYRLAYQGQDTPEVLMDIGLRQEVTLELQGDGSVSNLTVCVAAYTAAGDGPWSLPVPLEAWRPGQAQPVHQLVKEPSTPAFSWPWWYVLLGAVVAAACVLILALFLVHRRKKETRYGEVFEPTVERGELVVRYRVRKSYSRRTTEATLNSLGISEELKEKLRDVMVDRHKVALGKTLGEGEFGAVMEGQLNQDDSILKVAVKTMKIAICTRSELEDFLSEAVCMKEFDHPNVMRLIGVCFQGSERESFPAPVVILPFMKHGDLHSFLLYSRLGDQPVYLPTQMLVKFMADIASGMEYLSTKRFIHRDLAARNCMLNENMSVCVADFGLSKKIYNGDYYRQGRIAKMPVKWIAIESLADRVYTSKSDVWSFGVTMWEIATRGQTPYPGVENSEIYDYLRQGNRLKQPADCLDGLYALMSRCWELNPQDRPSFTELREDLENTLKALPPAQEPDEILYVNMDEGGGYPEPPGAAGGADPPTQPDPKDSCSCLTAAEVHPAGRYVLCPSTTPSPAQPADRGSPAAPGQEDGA
The assay can be described thus: Intracellular Axl Phosphorylation Inhibitory Activity (pAxl, NCI-H1299 cells). The class given is cell-based. Particulars: 1 h compound incubation, GAS6 stimulation 10 minutes, pAxl (Y702) level. As for the experimental part:
A phosphorylated Axl (hereinafter pAxl) inhibitory test was performed using the human non-small-cell lung cancer-derived cell strain NCI-H1299.
On the following day, the medium was removed, 100 μl of fresh medium were added, and the cells were cultured at 37° C. in the presence of 5% CO2 for one day.
The test compound was dissolved in DMSO and diluted with medium to prepare a sample solution (DMSO concentration: 2%). Twenty-five microliters of medium or sample-added medium was added to each well (DMSO concentration: 0.4%), and the plate was incubated at 37° C. in the presence of 5% CO2 for one hour.
After stirring, the plate was incubated at 37° C. in the presence of 5% CO2 for 10 minutes.
The supernatant was discarded, and 0.1 ml of a 37% formalin solution diluted to 4% with phosphate buffer (PBS) (hereinafter “4% formalin solution”) was added to each well. The plate was allowed to stand at room temperature for 10 minutes.
Next, the 4% formalin solution was discarded, and 0.2 ml of a solution of Triton X-100 diluted to 0.1% with PBS (hereinafter “wash buffer”) was added. […]
After light stirring, the plate was incubated for 20 minutes. Luminescence was then measured by ARVO sx (PerkinElmer), and the pAxl (Y702) level was measured.
pAxl Inhibitory activity was determined by the following formula. […]
T: Luminescence value of the reaction solution with a compound not added

Assay [2] addresses T2, AXL (fusion protein of amino acids 464-885 of the intracellular domain of human AXL with glutathione transferase) (Homo sapiens, UniProt P30530).
T2 sequence (P30530 464-885 isoform P30530-2): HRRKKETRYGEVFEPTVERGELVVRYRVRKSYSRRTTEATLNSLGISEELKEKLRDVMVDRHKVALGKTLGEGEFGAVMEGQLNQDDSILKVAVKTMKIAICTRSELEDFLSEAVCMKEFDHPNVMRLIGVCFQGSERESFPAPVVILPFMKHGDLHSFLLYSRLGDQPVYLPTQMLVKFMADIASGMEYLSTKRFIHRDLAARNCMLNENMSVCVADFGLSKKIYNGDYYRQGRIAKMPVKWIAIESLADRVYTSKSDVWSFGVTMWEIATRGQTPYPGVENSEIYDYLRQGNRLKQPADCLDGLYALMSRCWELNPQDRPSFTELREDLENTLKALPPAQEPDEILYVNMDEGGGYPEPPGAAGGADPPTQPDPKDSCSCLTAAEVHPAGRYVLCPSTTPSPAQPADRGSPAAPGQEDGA
Kind of assay: Cell-Free Axl Kinase Inhibitory Activity.

pIC50: −log10 of the molar value.

On to `COc1ccccc1-c1cnc(N)c(-c2ccc(NC(=O)c3cn(CC(F)(F)F)cc(-c4ccc(F)cc4)c3=O)cc2)c1` [Example 34, N-{4-[2-Amino-5-(2-methoxyphenyl)pyridin-3-yl]phenyl}-5-(4-fluorophenyl)-4-oxo-1-(2,2,2-trifluoroethyl)-1,4-dihydropyridine-3-carboxamide], for which the pIC50 (usually the negative decadic logarithm of the IC50, by convention in mol/L) in assay [1] is 7.00 to 7.30; in assay [2], 8.00 to 9.00.
